The median lay at about -60%. The list shows a part of the results. Potency and affinity values are given separately. Entries without a call are filed as inconclusive in the source.

The chains behind the UniProt entries cited, without tags or fusion partners.
UniProt P08659, whole entry, looked up: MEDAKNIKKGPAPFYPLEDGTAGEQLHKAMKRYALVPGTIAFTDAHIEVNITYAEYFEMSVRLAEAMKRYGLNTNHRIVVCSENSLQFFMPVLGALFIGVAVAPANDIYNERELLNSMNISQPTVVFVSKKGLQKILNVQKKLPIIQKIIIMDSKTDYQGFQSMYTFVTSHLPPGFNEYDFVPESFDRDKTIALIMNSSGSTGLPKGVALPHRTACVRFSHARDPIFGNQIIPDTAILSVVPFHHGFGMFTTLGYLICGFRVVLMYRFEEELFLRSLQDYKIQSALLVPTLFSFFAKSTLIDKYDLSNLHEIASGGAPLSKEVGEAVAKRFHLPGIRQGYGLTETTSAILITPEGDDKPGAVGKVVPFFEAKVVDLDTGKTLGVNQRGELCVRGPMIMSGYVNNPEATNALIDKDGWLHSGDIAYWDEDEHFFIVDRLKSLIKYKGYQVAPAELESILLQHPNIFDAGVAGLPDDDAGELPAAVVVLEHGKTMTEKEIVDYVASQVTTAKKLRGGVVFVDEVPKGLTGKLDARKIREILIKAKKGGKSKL

This test has as its target Luciferin 4-monooxygenase (Photinus pyralis) (UniProt P08659). Put plainly: Luciferase translation or activity inhibitors, H4 neuroglioblastoma cells, luminescence dose response (AID 1990). To be noted: H4 neuroglioma cells; at 12 µM (top of the series) unless noted.
With `CN(C)c1ccc(-c2noc(-c3ccccc3O)n2)cc1`, the activity change, negative = inhibition is -32.7%.
For `Cc1csc(NC(=O)C2COc3ccccc3O2)n1` (stereo not given) the value was -9.8%; for `CCCC1=Nc2cc(C(=O)NCCCOCC)ccc2Sc2ccccc21`, -46.9%; for `COc1cc(NC(=O)c2cc3ccccc3o2)c(OC)cc1Br`, 36.6%.
The result for `O=C(N/N=C/c1cccs1)c1n[nH]c2c1CCC2` reads -24.5%; that for `Cc1ccc(Nc2nc(N)c3ccccc3n2)cc1C`, -56%.
For `CC1CCN(Cc2c(C(=O)N/N=C/c3cc(Br)ccc3O)nnn2-c2nonc2N)CC1` the value was -82.9%.
Consider `COc1ccc(C(=O)NCCC2=CCCCC2)cc1`, for which the activity change, negative = inhibition was -54.2%.
As for `O=C(COc1ccc(CO)cc1Cl)Nc1ccc(F)cc1`, the activity change, negative = inhibition is -20.3%.
Take `Cc1ccc2nc(SCC3CCCCO3)[nH]c2c1` (stereo not given): the activity change, negative = inhibition is -42.6%.
For `O=c1[nH]c(/C=C/c2ccccc2F)nc2ccccc12` the value was -32.4%.
Take `Cc1cc(C(=O)CSc2cccc[n+]2[O-])c(C)n1-c1ccccc1`: the activity change, negative = inhibition worked out at 19.1%.
With `Cc1ccc(-c2cc(C(=O)N3CCCC3)no2)cc1`, the activity change, negative = inhibition was -58.2%.
Regarding `C=CCn1c(C)cc(C(=O)CSc2nc3ccccc3[nH]2)c1C`, the activity change, negative = inhibition was -60%.
For `CCN(CC)CCn1c2ccccc2c2nc3ccc([N+](=O)[O-])cc3cc21` the value was 93.8%; for `Cc1ccc2c(c1)sc(=NC(=O)c1cccs1)n2C`, -80.1%.
On to `COc1cccc(C(=O)Cn2c(=N)n(C)c3ccccc32)c1`, for which the activity change, negative = inhibition is -71.8%.
For `Oc1c(C(Nc2nccs2)c2ccc(C(F)(F)F)cc2)ccc2cccnc12` (stereo not given) the value was -82.5%; for `COc1ccc(/C=C2\SC(=S)N(CCC(=O)NC3C=CS(=O)(=O)C3)C2=O)cc1` (stereo not given), -55.7%; for `Cc1cccc(NC(=O)c2onc3c2CCCC3)n1`, -66.5%.
For `Cc1ccccc1NC(=O)c1cnc2ccccn2c1=O` the value was -36.1%; for `Cc1ccc(-c2[nH]ncc2/C=C(\C#N)C(=O)NC2CCCCC2)cc1`, -47.7%.
The result for `COc1ccc(C(=O)Nc2ccc3[nH]ccc3c2)cc1` reads -70.4%; that for `Oc1c(N=Nc2ccccn2)ccc2ccccc12`, 8.4%; that for `CCOc1ccc(Nc2cc(C)nc(-n3nc(C)cc3C)n2)cc1`, -61.8%.
In the case of `COc1ccc(-c2cc3nc(CCl)[nH]c(=O)c3s2)cc1`, the activity change, negative = inhibition came out at 97.8% [at 6 µM].
The result for `CCNC(=S)NNC(=O)c1cc(-c2ccc(OCC)cc2)nc2ccccc12` reads -47.2%; that for `CC#CC(=O)N1CCC(CCc2ccccc2)(C(=O)OCC)CC1`, -47.4%; that for `CNC1=C(N(C(C)=O)c2ccc(Br)cc2)C(=O)c2ccccc2C1=O`, -95.5%.
The result for `Cc1ccc(CSc2nc3ccncc3[nH]2)cc1` reads -66.7%; that for `Cc1c(C(=O)N/N=C/c2c(O)ccc3ccccc23)nnn1-c1nonc1N`, -47.2%.
Consider `CCCCc1ccc(-c2ccc(C)cc2O)nc1`, for which the activity change, negative = inhibition is -60.2%.
The result for `CCc1n[nH]c(=S)n1/N=C/c1c(C)nn(-c2ccccc2)c1Cl` reads -71.3%; that for `CCN1CCN(/C=N/c2nc3c(s2)CCCC3)CC1`, -52.1%.
For the compound `Cn1ccnc1SCc1cn2cc(Br)ccc2n1`, the activity change, negative = inhibition was -47.6%.
For `CCOc1ccc(/C=C2\SC(=S)N(CCCC(=O)NCCCN3CCOCC3)C2=O)cc1`, the activity change, negative = inhibition is -90.8%.
For `O=C(O)c1ccccc1N/N=C\c1ccnc2ccccc12` the value was -65.4%; for `O=C(CCc1nnc(-c2ccc(-c3ccccc3)cc2)o1)NCCc1ccccn1`, -73%; for `Cc1ccc(C(=O)CN2C(=O)c3ccccc3S2(=O)=O)cc1`, -96.2%.
For `N#CC(c1ccc(Cl)cc1)c1ccc2c(C(F)(F)F)cc(C(F)(F)F)nc2n1` (stereo not given) the value was -82.9%.
For `CC1(C)CC(N=c2cc(-c3ccccc3)oc3ccc(Cl)cc23)CC(C)(C)N1` the value was -90.5%; for `O=C(Nc1ccccn1)c1onc2c1CCCC2`, -70.9%.
For the compound `Cc1ccccc1OCC(=O)Nc1cccc(C(=O)O)c1`, the activity change, negative = inhibition is -26.3% [at 6 µM].
The result for `CCCCCOC(=O)c1[nH]c2c(c1C)C(=O)CC(c1ccco1)C2` (stereo not given) reads -55.7%; that for `O=C(Nc1nc2c(s1)CCCC2)C1COc2ccccc2O1` (stereo not given), -47.9%.
For `CCC(=O)Nc1ccc(NC(=O)c2oc3ccccc3c2C)cc1` the value was -77.1%; for `Cc1cc(NCCCn2ccnc2)n2ncc(-c3ccc(Cl)cc3)c2n1`, -51.3%; for `CN(C)c1ccc2nc3ccc(=[N+](C)C)cc-3sc2c1`, -22.6%.
For `COc1ccc(-n2ncc3c(N(C)C4CCCCC4)ncnc32)cc1` the value was -86.9%; for `c1ccc(-c2cn3c4c(sc3n2)CCCC4)cc1`, -76%.
Consider `O=C(CCCOc1ccccc1)N1CCCCC1`, for which the activity change, negative = inhibition is -53.7%.
For `Cc1ccc(-c2nc(-c3ccccc3)no2)c(Cl)c1` the value was -84.6%; for `O=C(Nc1cccc(O)c1)c1cc(-c2ccc3c(c2)OCO3)on1`, -73.5%.
The result for `O=C(NCCc1ccccc1)c1ccc2nccnc2c1` reads -63.6%; that for `C=CCSc1nc2c(cnn2-c2ccccc2)c(=O)n1N`, 109%.
For `Nc1ncnc(N)c1N=Nc1ccccc1` the value was -15.4%; for `CC(C)Oc1ccccc1C1Nc2ccccc2C(=O)N1c1ccc2c(c1)OCCO2` (stereo not given), -65.4%.
Turning to `O=C(COc1ccc(/C=N/NC(=O)c2cc3ccccc3o2)cc1Br)Nc1ccccc1`, the activity change, negative = inhibition is -102%.
The result for `CC(NC(=O)CCc1nnc(-c2ccc(-c3ccccc3)cc2)o1)c1nccs1` (stereo not given) reads -71.3%; that for `O=C(O)c1cccc(N/N=C/c2cccc3ccccc23)c1`, -65.9%.
Regarding `Cc1ccc(N/C=C/C(=O)c2cccs2)cc1`, the activity change, negative = inhibition was -43.4%.
As to `CCN(C(=O)COC(=O)c1cc(-c2ccc3cc(OC)ccc3c2)nc2ccccc12)C1CCS(=O)(=O)C1` (stereo not given), the activity change, negative = inhibition is -49.2%.
For `Cc1cccc2cc(C#N)c(SCC(=O)N3CC(=O)Nc4ccccc43)nc12` the value was -71.5%; for `CN(C)CCCNC(=O)c1ccc(-c2nc(-c3ccc(Cl)cc3)cs2)cc1`, -100%.
For `N#CCCCC#Cc1ccc2c(c1)COc1c3ccccc3nn1-2` the value was -60.5%; for `CCn1nnc2cc(C(=O)NCCc3ccccc3F)ccc21`, -59.4%.
The result for `COc1cc2c(c(OC)c1OC)-c1ccc(N(C)CC(OC)OC)c(=O)cc1[C@@H](NC(C)=O)CC2` reads -71.8%; that for `CC1CN/C(=C\C(=O)c2ccc(Br)cc2)C(=O)N1` (stereo not given), -37%; that for `O=C(/C=C/Nc1ccc(Br)cc1F)c1ccco1`, -48.8%.
Regarding `OCCN1CCN(C(=S)c2ccc(-c3ccccc3)cc2)CC1`, the activity change, negative = inhibition is -34.3% [at 6 µM].
For the compound `CC1(C)Cc2nc3sc4c(SCC(=O)NCc5ccccc5)ncnc4c3cc2CO1`, the activity change, negative = inhibition was -25.6%.
The result for `COc1ccc(N/N=C/c2c(C(=O)O)ccc3ccccc23)cc1` reads -74.4%; that for `CCCNC(=O)c1ccc(-c2nc3ccccc3s2)s1`, -72.7%; that for `Cc1ccc(/C=C/c2nc3ccccc3s2)s1`, -83.5%.
On to `CCn1nc(C)c(NC(=O)/C=C/c2ccc(OC)c(COc3ccc(Br)cc3)c2)c1C`, for which the activity change, negative = inhibition is -45.5%.

The values above are taken from PubChem BioAssay AID1990 (Broad Institute, 2009).
